# Test system: 22 month-old diabetic C57B6 mice
# Experiment: Diabetic nephropathy in aged streptozotocin-diabetic C57B6 mice (albuminuria, renal histology, morphometry, serum chemistry)
# Format: in vivo, mouse
# Conditions: 22 month-old diabetic mice treated with PPS, n = 10; mean±SD
# Experimental: 4 and 16-17 month-old female C57B6 mice were obtained from National Institute on Aging and were injected with streptozotocin to induce diabetes. Mice were given 50 μg/g of streptozotocin in every three days, for a total of 5-8 injections. A total of 250-400 μg/g of streptozotocin was sufficient in most of mice to induce stable hyperglycemia (≧250 mg/dL). The streptozotocin dose required to establish stable diabetes was similar between […] and 4 month-old mice. There was less than 10% of mortality in both age groups of diabetic mice with this streptozotocin protocol. Dead mice were excluded from further study. Mice with stable diabetes at 5 or 18 months of age were selected for randomization. Female C57B6 mice were chosen as the onset and nature of renal lesions in aging was documented by the inventors herein These mice have irregular, lengthened estrous cycles around 10 to 14 months of age and the cycles usually cease at 18 months of age. […] 18 month-old diabetic mice were randomly divided into PPS treated (n=10, PPS 25 mg/kg/day in drinking water) and control (n=11) groups. No PPS treatment was given to 5 month-old diabetic mice. Both age groups of diabetic mice were followed for 4 months without insulin treatment. Body weight and blood glucose levels were monitored weekly. Urine albumin excretion was measured bi-weekly using an ELISA kit (Bethyl Laboratory Inc, Houston, Tex., USA), as previously described (Zheng F, et al. Am J Pathol 2003, 162:1339-1348). Urine creatinine levels were measured in the same samples and the urine albumin excretion rate was expressed as the ratio of albumin to creatinine Blood urea nitrogen (BUN) levels and serum creatinine levels were examined at sacrifice. […]
# Mice were sacrificed 4 months after stable hyperglycemia was established. […] The glomerular volume and mesangial area were determined by examining plastic embedded sections using a digitizing tablet and video camera. The relative mesangial area was expressed as mesangial/glomerular surface area. Glomerular cell number was determined by counting the nuclear number in at least 30 glomeruli of each section. The glomerular basement membrane thickness was measured by the orthogonal intercept method on electron microscopic images. To determine the number of glomerular fenestrae, the length of was fenestrated or unfenestrated glomerular capillary endothelial cytoplasm was measured. […] Tubulointerstitial lesions were scored from 0 to 4 (0, no changes; 1+, changes affecting <25% of the sample; 2+, changes affecting 25 to 50% of the sample; 3+, changes affecting 50 to 75% of the sample; 4+, changes affecting 75 to 100% of the sample) based on tubular atrophy, increase in the thickness of basement membranes and interstitial area, and clusters of inflammatory cells.
substance,measurement,value
pentosan polysulfate [PPS],Body weight,24.1 ± 1.3 g
same,Glucose,332 ± 68 mg/dL
same,Heart weight,170 ± 14 mg
same,Kidney weight,221 ± 23 mg

# Reference: patent US8871741B2, “Inhibition of TNF-α induced activation of NFKB by pentosan polysulfate” (Icahn School of Medicine at Mount Sinai, priority 2010, dated 2014)
